{"source": "PubChem BioAssay AID652243 (Drosophila RNAi Screening Center, 2013)", "test": "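Fly genes required for human androgen receptor driven transcription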 (primary screen)", "cells": "Drosophila S2R+ cells", "knock-down reagent": "long dsRNA against Drosophila genes", "time to read-out": "72 h (48 h, then 24 h hormone)", "conditions": "synthetic androgen R1881 at 10 nM for 24 h", "detection": "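Per-well raw luminescence of the androgen-driven firefly reporter and of the Renilla control, two replicates each, without normalisation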", "scale": "firefly reporter light: higher = more light from androgen-responsive reporter; Renilla control light: higher = more constitutive control signal (cell number, transfection)", "hit rule": "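Hit when the log firefly-to-Renilla ratio dropped or increased by a fixed fold versus the mean of GFP or LacZ controls across duplicate plates; lowering cut given as 1.5 and as 3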", "calls": "active = hit: reporter lowered or raised; inactive = no hit", "note": "The deposit covers about 24,000 reagents; shown is a random part of those that have a named target and a result. In the full data, 246 (1%) are marked active. 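Plates not normalised; calls are printed but the firefly/Renilla ratio behind them is not deposited; fold cut for lowering reported inconsistently.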 Raw values are not corrected between plates. A plus sign joins genes that one reagent is predicted to hit. Not given: the amount of reagent."}
{"target": "Agps", "DRSC id": "DRSC05984", "firefly reporter light, replicate 1": 76734, "firefly reporter light, replicate 2": 68324, "Renilla control light, replicate 1": 2.02e6, "Renilla control light, replicate 2": 2.02e6, "outcome": "inactive"}
{"target": "Agps", "DRSC id": "DRSC26742", "firefly reporter light, replicate 1": 7.09e5, "firefly reporter light, replicate 2": 4.26e5, "Renilla control light, replicate 1": 9.64e5, "Renilla control light, replicate 2": 2.66e5, "outcome": "inactive"}
{"target": "Jarid2", "DRSC id": "DRSC10372", "firefly reporter light, replicate 1": 5.53e5, "firefly reporter light, replicate 2": 4.96e5, "Renilla control light, replicate 1": 8.76e5, "Renilla control light, replicate 2": 8.62e5, "outcome": "inactive"}
{"target": "CG30015", "DRSC id": "DRSC05241", "firefly reporter light, replicate 1": 1.91e5, "firefly reporter light, replicate 2": 1.87e5, "Renilla control light, replicate 1": 6.67e5, "Renilla control light, replicate 2": 3.11e5, "outcome": "inactive"}
{"target": "CG30015", "DRSC id": "DRSC07027", "firefly reporter light, replicate 1": 8.88e5, "firefly reporter light, replicate 2": 7.06e5, "Renilla control light, replicate 1": 2.21e6, "Renilla control light, replicate 2": 2.39e6, "outcome": "inactive"}
{"target": "CG30015", "DRSC id": "DRSC07028", "firefly reporter light, replicate 1": 1.26e5, "firefly reporter light, replicate 2": 1.54e5, "Renilla control light, replicate 1": 1.15e6, "Renilla control light, replicate 2": 9.49e5, "outcome": "inactive"}
{"target": "CG31468", "DRSC id": "DRSC13637", "firefly reporter light, replicate 1": 63347, "firefly reporter light, replicate 2": 56943, "Renilla control light, replicate 1": 52546, "Renilla control light, replicate 2": 1.06e5, "outcome": "inactive"}

Reformatted: results already given.
target | DRSC id | firefly reporter light, replicate 1 | firefly reporter light, replicate 2 | Renilla control light, replicate 1 | Renilla control light, replicate 2 | outcome
Agps | DRSC05984 | 76734 | 68324 | 2.02e6 | 2.02e6 | inactive
Agps | DRSC26742 | 7.09e5 | 4.26e5 | 9.64e5 | 2.66e5 | inactive

The list goes on:
{"target": "CG12923", "DRSC id": "DRSC06237", "firefly reporter light, replicate 1": 2.71e5, "firefly reporter light, replicate 2": 2.25e5, "Renilla control light, replicate 1": 1.49e6, "Renilla control light, replicate 2": 1.20e6, "outcome": "inactive"}
{"target": "CG30379", "DRSC id": "DRSC05070", "firefly reporter light, replicate 1": 1.35e5, "firefly reporter light, replicate 2": 1.57e5, "Renilla control light, replicate 1": 4.47e5, "Renilla control light, replicate 2": 4.81e5, "outcome": "inactive"}
{"target": "ind", "DRSC id": "DRSC23095", "firefly reporter light, replicate 1": 6.22e5, "firefly reporter light, replicate 2": 7.64e5, "Renilla control light, replicate 1": 1.09e6, "Renilla control light, replicate 2": 1.45e6, "outcome": "inactive"}
{"target": "He + NimB5", "DRSC id": "DRSC22876", "firefly reporter light, replicate 1": 4.19e5, "firefly reporter light, replicate 2": 6.77e5, "Renilla control light, replicate 1": 1.36e6, "Renilla control light, replicate 2": 1.73e6, "outcome": "inactive"}
{"target": "CG12914", "DRSC id": "DRSC06229", "firefly reporter light, replicate 1": 3.78e5, "firefly reporter light, replicate 2": 3.14e5, "Renilla control light, replicate 1": 2.54e6, "Renilla control light, replicate 2": 2.14e6, "outcome": "inactive"}
